From the supplement of paper PMC12067093, “Discovery and optimisation of a covalent ligand for TRIM25 and its application to targeted protein ubiquitination” (Chemical Science, 2025)
The other results are listed elsewhere or left out.

By UniProt entry, the sequences of proteins in these tests, tags left out. Where a name states a change or a piece, a line headed by the entry shows the natural chain unless it says otherwise.
UniProt Q9NZL9, whole entry, looked up: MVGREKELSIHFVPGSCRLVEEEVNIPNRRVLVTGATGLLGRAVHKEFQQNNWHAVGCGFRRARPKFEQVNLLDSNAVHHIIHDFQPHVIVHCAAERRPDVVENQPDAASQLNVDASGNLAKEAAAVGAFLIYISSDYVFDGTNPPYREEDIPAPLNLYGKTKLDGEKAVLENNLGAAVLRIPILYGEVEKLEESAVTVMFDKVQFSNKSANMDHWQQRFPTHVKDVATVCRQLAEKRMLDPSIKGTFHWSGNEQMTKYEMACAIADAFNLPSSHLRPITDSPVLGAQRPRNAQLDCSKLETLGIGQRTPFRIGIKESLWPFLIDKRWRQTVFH
UniProt P33908: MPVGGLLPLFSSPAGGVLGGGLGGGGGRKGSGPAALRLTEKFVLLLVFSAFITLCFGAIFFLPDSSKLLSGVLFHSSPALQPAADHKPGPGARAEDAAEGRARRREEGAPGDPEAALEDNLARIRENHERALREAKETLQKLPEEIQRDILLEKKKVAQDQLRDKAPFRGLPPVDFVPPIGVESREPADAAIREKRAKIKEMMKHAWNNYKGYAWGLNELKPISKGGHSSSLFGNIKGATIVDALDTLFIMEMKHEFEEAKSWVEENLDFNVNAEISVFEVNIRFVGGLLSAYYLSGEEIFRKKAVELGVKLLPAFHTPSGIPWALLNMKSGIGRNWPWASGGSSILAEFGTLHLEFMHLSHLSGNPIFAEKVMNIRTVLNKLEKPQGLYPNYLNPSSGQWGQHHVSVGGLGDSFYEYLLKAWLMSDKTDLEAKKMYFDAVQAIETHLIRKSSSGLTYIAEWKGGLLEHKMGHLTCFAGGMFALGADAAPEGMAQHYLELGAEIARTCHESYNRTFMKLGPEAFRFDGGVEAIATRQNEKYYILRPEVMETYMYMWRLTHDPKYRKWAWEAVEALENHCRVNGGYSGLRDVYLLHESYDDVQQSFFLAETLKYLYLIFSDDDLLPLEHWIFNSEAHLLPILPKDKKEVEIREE
UniProt O60449: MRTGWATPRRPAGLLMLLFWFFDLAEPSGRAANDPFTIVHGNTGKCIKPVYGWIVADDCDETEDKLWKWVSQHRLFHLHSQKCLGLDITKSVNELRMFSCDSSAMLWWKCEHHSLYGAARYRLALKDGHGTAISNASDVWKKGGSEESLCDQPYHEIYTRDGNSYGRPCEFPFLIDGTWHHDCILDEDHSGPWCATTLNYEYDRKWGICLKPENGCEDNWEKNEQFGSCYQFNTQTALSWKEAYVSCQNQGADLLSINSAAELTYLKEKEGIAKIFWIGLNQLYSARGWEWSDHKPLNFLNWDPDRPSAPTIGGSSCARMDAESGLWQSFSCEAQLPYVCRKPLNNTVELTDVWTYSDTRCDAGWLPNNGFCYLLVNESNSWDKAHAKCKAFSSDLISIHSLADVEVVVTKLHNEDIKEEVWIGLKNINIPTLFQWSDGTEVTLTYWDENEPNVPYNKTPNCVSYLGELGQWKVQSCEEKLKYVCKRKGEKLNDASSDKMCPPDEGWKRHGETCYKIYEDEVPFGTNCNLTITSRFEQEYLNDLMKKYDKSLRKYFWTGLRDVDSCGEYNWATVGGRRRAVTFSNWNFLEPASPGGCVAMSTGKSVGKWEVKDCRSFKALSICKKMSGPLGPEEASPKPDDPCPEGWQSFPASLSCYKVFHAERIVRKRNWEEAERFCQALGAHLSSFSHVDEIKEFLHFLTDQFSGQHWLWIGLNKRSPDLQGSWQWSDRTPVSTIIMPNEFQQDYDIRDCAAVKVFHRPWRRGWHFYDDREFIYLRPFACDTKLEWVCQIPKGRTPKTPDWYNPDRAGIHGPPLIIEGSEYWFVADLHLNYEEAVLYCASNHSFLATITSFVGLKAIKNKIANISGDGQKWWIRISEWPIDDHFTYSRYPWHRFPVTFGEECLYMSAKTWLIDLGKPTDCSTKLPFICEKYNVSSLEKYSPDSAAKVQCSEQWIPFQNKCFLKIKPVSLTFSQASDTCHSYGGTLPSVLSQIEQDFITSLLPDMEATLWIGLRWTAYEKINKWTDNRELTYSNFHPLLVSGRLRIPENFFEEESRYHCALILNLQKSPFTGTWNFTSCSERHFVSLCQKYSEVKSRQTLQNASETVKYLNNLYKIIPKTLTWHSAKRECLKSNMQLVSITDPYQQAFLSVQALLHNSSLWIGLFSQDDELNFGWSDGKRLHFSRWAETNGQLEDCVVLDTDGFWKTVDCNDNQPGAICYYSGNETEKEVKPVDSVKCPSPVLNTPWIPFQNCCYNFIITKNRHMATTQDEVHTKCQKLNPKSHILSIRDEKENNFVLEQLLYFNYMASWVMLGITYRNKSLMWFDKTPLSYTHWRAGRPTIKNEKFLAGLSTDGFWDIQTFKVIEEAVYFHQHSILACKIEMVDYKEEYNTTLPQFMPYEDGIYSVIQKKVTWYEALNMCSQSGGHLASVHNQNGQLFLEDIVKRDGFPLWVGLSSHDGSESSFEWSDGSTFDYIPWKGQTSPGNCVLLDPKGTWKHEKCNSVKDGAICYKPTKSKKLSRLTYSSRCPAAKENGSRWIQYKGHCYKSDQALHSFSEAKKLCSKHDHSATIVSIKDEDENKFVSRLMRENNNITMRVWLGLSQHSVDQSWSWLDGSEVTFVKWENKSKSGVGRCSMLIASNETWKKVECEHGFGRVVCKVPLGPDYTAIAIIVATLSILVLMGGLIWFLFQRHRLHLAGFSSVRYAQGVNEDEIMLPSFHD
UniProt Q9UIS9: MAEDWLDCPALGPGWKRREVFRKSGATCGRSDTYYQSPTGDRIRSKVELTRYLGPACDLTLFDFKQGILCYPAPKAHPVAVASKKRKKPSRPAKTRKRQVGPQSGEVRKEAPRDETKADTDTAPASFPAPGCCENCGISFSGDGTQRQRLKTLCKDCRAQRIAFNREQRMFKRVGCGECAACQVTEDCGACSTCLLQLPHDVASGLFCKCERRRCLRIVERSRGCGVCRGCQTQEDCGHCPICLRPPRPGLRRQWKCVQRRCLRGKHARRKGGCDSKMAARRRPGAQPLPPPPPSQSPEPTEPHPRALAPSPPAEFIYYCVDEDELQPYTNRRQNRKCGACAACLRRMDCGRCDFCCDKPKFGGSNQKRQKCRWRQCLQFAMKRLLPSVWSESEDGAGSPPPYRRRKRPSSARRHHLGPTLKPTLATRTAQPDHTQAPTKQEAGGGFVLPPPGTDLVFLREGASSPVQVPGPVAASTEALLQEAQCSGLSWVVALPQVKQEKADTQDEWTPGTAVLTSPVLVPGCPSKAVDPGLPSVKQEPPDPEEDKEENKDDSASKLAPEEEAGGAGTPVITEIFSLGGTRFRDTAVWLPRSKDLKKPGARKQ
UniProt O00754: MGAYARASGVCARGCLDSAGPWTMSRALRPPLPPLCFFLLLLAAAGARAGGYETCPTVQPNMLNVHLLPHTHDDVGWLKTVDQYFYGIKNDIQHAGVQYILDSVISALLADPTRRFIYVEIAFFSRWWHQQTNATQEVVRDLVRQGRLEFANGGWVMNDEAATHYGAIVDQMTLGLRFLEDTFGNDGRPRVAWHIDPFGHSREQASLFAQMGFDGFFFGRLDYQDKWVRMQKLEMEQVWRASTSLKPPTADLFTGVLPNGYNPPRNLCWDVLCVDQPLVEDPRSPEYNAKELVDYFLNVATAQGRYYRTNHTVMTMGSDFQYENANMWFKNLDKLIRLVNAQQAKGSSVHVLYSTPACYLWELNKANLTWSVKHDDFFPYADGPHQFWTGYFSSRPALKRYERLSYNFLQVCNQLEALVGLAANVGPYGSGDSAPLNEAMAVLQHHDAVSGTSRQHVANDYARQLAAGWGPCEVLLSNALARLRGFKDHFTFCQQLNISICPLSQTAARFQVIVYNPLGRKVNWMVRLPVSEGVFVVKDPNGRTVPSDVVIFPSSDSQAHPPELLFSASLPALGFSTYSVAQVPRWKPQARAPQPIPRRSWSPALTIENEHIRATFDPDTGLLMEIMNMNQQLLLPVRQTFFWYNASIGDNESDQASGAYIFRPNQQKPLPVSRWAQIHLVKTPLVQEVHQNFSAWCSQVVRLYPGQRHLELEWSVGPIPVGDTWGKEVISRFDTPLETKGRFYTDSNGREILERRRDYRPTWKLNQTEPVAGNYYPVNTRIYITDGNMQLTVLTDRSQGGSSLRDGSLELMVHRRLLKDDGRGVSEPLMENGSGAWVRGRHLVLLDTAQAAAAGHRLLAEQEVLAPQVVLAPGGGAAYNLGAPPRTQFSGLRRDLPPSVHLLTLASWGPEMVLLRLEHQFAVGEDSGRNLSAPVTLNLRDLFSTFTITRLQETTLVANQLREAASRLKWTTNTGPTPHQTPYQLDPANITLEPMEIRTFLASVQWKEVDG
UniProt Q66K74: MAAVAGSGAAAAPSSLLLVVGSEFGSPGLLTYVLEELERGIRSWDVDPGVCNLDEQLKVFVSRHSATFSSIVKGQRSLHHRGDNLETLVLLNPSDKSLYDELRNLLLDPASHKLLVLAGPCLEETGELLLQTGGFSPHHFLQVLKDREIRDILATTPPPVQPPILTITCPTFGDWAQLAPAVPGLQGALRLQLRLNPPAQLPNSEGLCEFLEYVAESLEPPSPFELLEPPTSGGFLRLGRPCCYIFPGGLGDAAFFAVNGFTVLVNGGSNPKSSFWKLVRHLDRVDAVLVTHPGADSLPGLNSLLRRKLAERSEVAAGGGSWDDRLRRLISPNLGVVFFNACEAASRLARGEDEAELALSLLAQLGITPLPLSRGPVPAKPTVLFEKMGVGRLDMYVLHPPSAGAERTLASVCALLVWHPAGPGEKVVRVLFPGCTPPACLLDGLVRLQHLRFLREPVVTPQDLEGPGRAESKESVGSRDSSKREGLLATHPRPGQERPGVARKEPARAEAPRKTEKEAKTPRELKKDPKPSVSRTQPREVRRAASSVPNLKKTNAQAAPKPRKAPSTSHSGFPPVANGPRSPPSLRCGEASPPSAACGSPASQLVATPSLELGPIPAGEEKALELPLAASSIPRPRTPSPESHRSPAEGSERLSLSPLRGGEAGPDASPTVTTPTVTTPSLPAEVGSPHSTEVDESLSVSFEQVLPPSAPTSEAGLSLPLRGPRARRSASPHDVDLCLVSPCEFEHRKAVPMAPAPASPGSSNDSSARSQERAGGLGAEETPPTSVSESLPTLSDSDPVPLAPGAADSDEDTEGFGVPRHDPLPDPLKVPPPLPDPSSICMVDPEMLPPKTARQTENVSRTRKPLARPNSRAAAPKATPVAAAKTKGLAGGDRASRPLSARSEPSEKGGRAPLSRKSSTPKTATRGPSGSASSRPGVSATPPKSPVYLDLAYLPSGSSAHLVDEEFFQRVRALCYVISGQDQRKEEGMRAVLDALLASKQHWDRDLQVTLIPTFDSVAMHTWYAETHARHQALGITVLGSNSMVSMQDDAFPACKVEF
UniProt Q9H0U3: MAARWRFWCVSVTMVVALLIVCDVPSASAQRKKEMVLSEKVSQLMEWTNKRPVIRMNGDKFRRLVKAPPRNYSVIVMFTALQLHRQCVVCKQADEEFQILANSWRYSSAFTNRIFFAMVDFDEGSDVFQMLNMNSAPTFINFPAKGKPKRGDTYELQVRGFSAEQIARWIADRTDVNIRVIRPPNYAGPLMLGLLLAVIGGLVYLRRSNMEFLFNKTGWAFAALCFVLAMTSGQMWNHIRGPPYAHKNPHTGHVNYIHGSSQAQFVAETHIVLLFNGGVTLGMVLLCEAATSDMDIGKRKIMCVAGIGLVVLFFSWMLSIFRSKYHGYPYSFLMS
UniProt Q8N653: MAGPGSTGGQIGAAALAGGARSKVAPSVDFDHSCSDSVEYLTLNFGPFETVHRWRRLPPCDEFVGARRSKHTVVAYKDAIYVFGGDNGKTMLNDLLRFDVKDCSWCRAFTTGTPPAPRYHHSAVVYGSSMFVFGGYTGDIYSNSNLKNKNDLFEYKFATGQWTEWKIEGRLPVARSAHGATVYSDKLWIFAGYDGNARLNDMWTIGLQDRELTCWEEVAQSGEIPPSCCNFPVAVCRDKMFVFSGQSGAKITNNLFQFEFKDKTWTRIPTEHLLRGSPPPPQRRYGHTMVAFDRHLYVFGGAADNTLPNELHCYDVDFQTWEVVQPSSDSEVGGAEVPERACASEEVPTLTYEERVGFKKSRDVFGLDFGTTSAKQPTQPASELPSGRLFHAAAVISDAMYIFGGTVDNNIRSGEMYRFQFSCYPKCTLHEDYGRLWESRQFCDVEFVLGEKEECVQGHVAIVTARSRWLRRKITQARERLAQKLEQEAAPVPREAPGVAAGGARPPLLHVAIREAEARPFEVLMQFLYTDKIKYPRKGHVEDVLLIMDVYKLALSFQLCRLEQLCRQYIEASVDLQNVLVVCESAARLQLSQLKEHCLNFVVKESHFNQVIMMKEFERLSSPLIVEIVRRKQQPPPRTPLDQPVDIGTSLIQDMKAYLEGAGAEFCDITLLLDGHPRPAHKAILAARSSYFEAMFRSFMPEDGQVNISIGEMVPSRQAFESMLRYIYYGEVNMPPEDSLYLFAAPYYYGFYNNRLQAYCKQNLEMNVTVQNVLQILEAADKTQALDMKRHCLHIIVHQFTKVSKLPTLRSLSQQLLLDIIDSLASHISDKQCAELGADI

Compound: CC1Cc2ccccc2N1C(=O)C1CCCN(C1)C(=O)CCl (mixture of isomers) [TRIM25 ligand 11 (diastereomer mixture)]
Assay: probe-labelled cysteine peptide fold change vs DMSO (competition) (log2 fold change); higher = less target engagement (more negative = stronger competition)
Settings: THP-1, incubation time: 4 h
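Also: competitive chemoproteomic profiling in live THP-1 cells with an iodoacetamide desthiobiotin (IA-DTB) probe, comparing probe-labelled peptide intensities in compound-treated cells against DMSO-treated controls.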

Row | Target | probe-labelled cysteine peptide fold change (10 µM) | probe-labelled cysteine peptide fold change (50 µM)
1 | MBNL2_Q5VZF2_19_WLTLEVCR (UniProt Q5VZF2) | -0.126 | -0.0451
2 | MACF1_Q9UPN3_3368_QLCLEHDEK (UniProt Q9UPN3) | 0.0306 | 0.202
3 | MACF1_Q9UPN3_5309_DCDVQGLEHDMEEINAR (UniProt Q9UPN3) | 0.136 | -0.0387
4 | MAPKBP1_O60336_1443_LYHSVAGCK (UniProt O60336) | 0.0367 | 0.16
5 | MAT2B_Q9NZL9_58_EFQQNNWHAVGCGFR (UniProt Q9NZL9) | 0.0159 | -0.0574
6 | MACF1_Q9UPN3_7133_QVAQCK (UniProt Q9UPN3) | -0.0489 | 0.114
7 | MAU2_Q9Y6X3_145_AIQISQQTPYWHCR (UniProt Q9Y6X3) | -0.167 | 0.0177
8 | MAN1A1_P33908_579_WAWEAVEALENHCR (UniProt P33908) | -0.0183 | -0.00169
9 | MAPK14_Q16539_39_YQNLSPVGSGAYGSVCAAFDTK (UniProt Q16539) | -0.107 | -0.0256
10 | LTA4H_P09960_136+141_EHPYLFSQCQAIHCR (UniProt P09960) | 0.159 | -0.0225
11 | LY75_O60449_1380_VIEEAVYFHQHSILACK (UniProt O60449) | 0.366 | 0.443
12 | MACF1_Q9UPN3_3619_QQNTCHQQLEDLCSWVGQAER (UniProt Q9UPN3) | -0.474 | 0.118
13 | MAPK1_P28482_254_HYLDQLNHILGILGSPSQEDLNCIINLK (UniProt P28482) | 0.0567 | -0.0188
14 | MBIP_Q9NS73_243_DCGNQAVEER (UniProt Q9NS73) | -0.0155 | -0.0072
15 | MASP1_P48740-2_630_LPVVPHAECK (UniProt P48740) | 0.322 | 0.233
16 | MBD1_Q9UIS9_28_SGATCGR (UniProt Q9UIS9) | -0.0966 | -0.103
17 | LYAR_Q9NX58_51_CISEDQK (UniProt Q9NX58) | -0.0926 | -0.182

Row | Target | probe-labelled cysteine peptide fold change (10 µM) | probe-labelled cysteine peptide fold change (50 µM)
18 | MAPK3_P27361_82_KISPFEHQTYCQR (UniProt P27361) | 0.0969 | -0.075
19 | LY75_O60449_782_GWHFYDDREFIYLRPFACDTK (UniProt O60449) | 0.0664 | 0.271
20 | MARS2_Q96GW9_336_ICVHSHWTVCGQK (UniProt Q96GW9) | 0.114 | -0.0522
21 | MAT2B_Q9NZL9_231_DVATVCR (UniProt Q9NZL9) | -0.163 | -0.00304
22 | MAN2B1_O00754_268+273_NLCWDVLCVDQPLVEDPR (UniProt O00754) | -0.215 | -0.0574
23 | MAP1S_Q66K74_435+440_VLFPGCTPPACLLDGLVR (UniProt Q66K74) | -0.121 | -0.0707
24 | MAP3K7_O43318_180_ICDFGTACDIQTHMTNNK (UniProt O43318) | -0.022 | -0.0171
25 | MAGT1_Q9H0U3_90_QCVVCK (UniProt Q9H0U3) | 0.0352 | -0.0544
26 | MACF1_Q9UPN3_919_VISPTGNEAMVPSVCFLIPPPNK (UniProt Q9UPN3) | 0.0152 | 0.0706
27 | MAP2K3_P46734_29_ISCMSKPPAPNPTPPR (UniProt P46734) | -0.0609 | -0.253
28 | MAP1S_Q66K74_342_LISPNLGVVFFNACEAASR (UniProt Q66K74) | -0.0757 | -0.0686
29 | LY75_O60449_1089_HFVSLCQK (UniProt O60449) | 0.118 | 0.16
30 | MAP2K2_P36507_384_RSEVEEVDFAGWLCK (UniProt P36507) | -0.135 | -0.214
31 | MBD1_Q9UIS9_525_ADTQDEWTPGTAVLTSPVLVPGCPSK (UniProt Q9UIS9) | -0.0898 | -0.159
32 | MBLAC2_Q68D91_212_ISDYVGTCER (UniProt Q68D91) | -0.0849 | 0.0369
33 | LZTR1_Q8N653_667_AYLEGAGAEFCDITLLLDGHPRPAHK (UniProt Q8N653) | -0.0537 | 0.0338
34 | MAP4K3_Q8IVH8_509_DGSLCQQQNEHR (UniProt Q8IVH8) | 0.0483 | -0.0549

In a second layout: results already given
Row	Target	probe-labelled cysteine peptide fold change (10 µM)	probe-labelled cysteine peptide fold change (50 µM)
22	MAN2B1_O00754_268+273_NLCWDVLCVDQPLVEDPR (UniProt O00754)	-0.215	-0.0574
25	MAGT1_Q9H0U3_90_QCVVCK (UniProt Q9H0U3)	0.0352	-0.0544
28	MAP1S_Q66K74_342_LISPNLGVVFFNACEAASR (UniProt Q66K74)	-0.0757	-0.0686
29	LY75_O60449_1089_HFVSLCQK (UniProt O60449)	0.118	0.16
30	MAP2K2_P36507_384_RSEVEEVDFAGWLCK (UniProt P36507)	-0.135	-0.214
31	MBD1_Q9UIS9_525_ADTQDEWTPGTAVLTSPVLVPGCPSK (UniProt Q9UIS9)	-0.0898	-0.159
33	LZTR1_Q8N653_667_AYLEGAGAEFCDITLLLDGHPRPAHK (UniProt Q8N653)	-0.0537	0.0338
